Laboratory results: the supplement of paper PMC12889115
The other results are listed elsewhere or left out. Values are raw readings; no control value is given beside them.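 First-pass screen: polymyxin B was added at a level that permeabilizes the Salmonella outer membrane while sparing the inner membrane. DMSO wells, with and without polymyxin B, defined maximum growth. Because plates differed from one another, each plate's data were ranked separately and the compounds with the lowest OD600 were carried forward as hits.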

Test system: Salmonella enterica serovar Typhimurium SL1344
Test: bacterial growth OD600 after 18 h with compound and polymyxin B; higher = more bacterial growth (less inhibition)
Details: 50 µM, Mueller-Hinton broth

SMILES | bacterial growth OD600 (polymyxin B 0.75 µg/mL) | bacterial growth OD600 (polymyxin B 1 µg/mL)
O=C(NC1CCCN(C2Cc3ccccc3C2)C1)C1(N2CCOCC2)CCCCC1 (stereo not given) | 0.819 | –
CCO[C@H]1[C@H](NC(=O)c2cccnc2)c2ccccc2C12CCN(C(=O)C1CCCCC1)CC2 | 0.829 | –
O=C(NCc1cccs1)C1CC12CCN(Cc1cccc3nccnc13)CC2 (stereo not given) | 0.788 | –
OC1CCCN(c2ccc(-c3nc(Cc4ccc(Cl)cc4)no3)cn2)C1 (stereo not given) | – | 0.955
Fc1ccc(CC2CCN(Cc3nc(CC4CC4)no3)CC2)cc1 | – | 0.827
COCCO[C@H]1[C@H](NC(=O)C(C)C)c2ccccc2C12CCN(C(=O)Cc1ccsc1)CC2 | 0.823 | –
COC(=O)CCC(=O)N1CCCC(CCC(=O)Nc2cc(OC)cc(OC)c2)C1 (stereo not given) | – | 0.954
CNc1ccc(C(=O)NCCC2COc3ccccc3O2)cn1 (stereo not given) | – | 0.968
COCC(=O)Nc1cc(C(=O)NC(CCSC)C(=O)OC)cc2ncn(CCc3ccccc3)c12 (stereo not given) | 0.887 | –
Fc1ccccc1-c1n[nH]c2c1CN(C1CCSC1)CC2 (stereo not given) | 0.986 | –
COc1ccc(NC(=O)NC2CC(=O)N(C3CCCCCC3)C2)c(C)c1 (stereo not given) | – | 1
CCOC(=O)C1(Cc2cccc(Cl)c2)CCCN(C(=O)C2=C(C)OCCO2)C1 (stereo not given) | – | 1.01
CSc1nc(C(=O)N2CCCC(c3nc(-c4cccnc4)ncc3-c3ccccc3F)C2)cs1 (stereo not given) | 0.002 | –
O=C(CCCc1ccccc1)N1CCOc2ccc(CN3CCN(c4ccc(F)cc4)CC3)cc2C1 | 0.591 | –
COc1cc(CN2CCCC(CO)(Cc3cccc(Cl)c3)C2)cc(OC)c1 (stereo not given) | – | 0.549
COC1CCCN(C(=O)c2csc3nc(-c4cccc(C(F)(F)F)c4)cn23)C1 (stereo not given) | 0.536 | –
COCCN1CCCC2(CCN(Cc3cc4c(cc3Cl)OCO4)C2)C1 (stereo not given) | – | 0.86
C=CCS(=O)(=O)N1CCCC(Cc2ccccc2C)(C(=O)OCC)C1 (stereo not given) | – | 0.883
O=C(c1n[nH]c(=O)c2ccccc12)N1CCC2(CCCN(CCc3ccccc3)C2)C1 (stereo not given) | – | 0.008
Cc1nc(-c2ccncc2)ncc1C(C)NC(=O)CCc1cccs1 (stereo not given) | – | 0.911

Entries of single compounds as entered above:
CNc1ccc(C(=O)NCCC2COc3ccccc3O2)cn1 (stereo not given) as listed: bacterial growth OD600 (polymyxin B 1 µg/mL): 0.968
O=C(NCc1cccs1)C1CC12CCN(Cc1cccc3nccnc13)CC2 (stereo not given) as listed: bacterial growth OD600 (polymyxin B 0.75 µg/mL): 0.788
